Results as given in the supplement of paper PMC10849652.
This is one part of the list.

Protein sequences, listed by entry. Tags and fused reporters are not part of them. Lines headed by an entry give the natural chain unless they say otherwise; changes in a name come on top.
UniProt Q9Y3B8: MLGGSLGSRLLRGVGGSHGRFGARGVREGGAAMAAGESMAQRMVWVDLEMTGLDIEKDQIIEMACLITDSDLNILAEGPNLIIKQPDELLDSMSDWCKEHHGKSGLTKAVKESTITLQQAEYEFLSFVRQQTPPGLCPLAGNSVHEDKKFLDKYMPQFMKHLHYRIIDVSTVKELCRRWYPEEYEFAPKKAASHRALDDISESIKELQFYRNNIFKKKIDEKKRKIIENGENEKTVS
UniProt Q8TDY2, whole entry, looked up: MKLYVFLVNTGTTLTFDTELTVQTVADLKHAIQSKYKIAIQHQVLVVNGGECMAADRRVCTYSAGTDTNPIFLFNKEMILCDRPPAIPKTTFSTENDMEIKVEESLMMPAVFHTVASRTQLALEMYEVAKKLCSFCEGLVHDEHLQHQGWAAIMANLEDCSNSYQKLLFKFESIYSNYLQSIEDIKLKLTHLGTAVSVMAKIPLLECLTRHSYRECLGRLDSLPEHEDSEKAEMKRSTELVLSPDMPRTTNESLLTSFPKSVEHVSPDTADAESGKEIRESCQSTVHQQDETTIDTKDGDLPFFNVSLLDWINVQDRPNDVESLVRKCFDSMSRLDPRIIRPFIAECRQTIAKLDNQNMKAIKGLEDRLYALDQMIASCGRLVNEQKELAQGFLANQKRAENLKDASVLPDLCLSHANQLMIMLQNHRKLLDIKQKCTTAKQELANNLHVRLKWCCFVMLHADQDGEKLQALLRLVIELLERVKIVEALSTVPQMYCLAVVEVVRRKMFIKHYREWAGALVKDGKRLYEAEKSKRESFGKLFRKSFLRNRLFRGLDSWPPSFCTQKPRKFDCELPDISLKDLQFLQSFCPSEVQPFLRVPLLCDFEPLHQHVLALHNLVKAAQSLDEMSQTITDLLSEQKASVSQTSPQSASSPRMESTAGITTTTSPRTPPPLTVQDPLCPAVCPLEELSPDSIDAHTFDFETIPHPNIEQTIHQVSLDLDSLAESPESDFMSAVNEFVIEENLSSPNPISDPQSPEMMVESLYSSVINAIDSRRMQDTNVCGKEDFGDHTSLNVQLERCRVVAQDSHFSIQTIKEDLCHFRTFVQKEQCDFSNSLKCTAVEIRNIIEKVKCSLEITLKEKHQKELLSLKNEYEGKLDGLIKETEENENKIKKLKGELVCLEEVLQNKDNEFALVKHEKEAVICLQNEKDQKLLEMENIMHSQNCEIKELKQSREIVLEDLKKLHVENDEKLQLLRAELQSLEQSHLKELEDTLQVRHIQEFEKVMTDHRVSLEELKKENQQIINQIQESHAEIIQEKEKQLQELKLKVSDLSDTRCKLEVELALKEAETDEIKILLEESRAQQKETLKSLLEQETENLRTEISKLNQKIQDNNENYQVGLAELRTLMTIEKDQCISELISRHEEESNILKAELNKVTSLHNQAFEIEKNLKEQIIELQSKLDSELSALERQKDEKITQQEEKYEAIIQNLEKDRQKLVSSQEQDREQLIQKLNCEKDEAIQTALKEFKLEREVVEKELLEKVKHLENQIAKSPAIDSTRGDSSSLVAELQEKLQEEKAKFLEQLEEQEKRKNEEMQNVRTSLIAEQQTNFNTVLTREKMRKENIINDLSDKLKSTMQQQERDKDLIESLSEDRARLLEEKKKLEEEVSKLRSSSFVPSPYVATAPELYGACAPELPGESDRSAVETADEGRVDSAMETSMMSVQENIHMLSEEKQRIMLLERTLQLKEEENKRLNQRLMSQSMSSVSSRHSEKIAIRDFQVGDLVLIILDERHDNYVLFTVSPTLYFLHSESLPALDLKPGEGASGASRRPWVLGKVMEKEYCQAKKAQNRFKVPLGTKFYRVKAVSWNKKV
UniProt P54136: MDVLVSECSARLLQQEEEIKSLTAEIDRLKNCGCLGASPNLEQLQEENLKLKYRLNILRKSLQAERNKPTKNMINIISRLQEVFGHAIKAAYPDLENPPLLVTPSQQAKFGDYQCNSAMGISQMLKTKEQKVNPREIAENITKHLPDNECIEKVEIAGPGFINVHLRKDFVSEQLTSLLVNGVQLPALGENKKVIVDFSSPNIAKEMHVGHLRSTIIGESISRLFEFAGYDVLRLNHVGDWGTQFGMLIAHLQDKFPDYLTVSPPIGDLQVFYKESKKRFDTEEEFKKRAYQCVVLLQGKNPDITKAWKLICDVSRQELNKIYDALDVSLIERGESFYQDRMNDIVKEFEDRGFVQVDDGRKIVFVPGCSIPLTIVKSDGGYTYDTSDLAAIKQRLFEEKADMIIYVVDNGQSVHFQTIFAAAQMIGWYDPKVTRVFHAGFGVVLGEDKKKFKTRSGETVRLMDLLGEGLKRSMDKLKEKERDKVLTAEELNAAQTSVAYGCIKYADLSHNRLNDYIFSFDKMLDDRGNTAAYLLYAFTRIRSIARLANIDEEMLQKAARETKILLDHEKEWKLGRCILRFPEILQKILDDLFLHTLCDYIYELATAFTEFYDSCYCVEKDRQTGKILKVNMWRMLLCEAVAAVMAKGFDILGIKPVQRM
UniProt Q9Y388: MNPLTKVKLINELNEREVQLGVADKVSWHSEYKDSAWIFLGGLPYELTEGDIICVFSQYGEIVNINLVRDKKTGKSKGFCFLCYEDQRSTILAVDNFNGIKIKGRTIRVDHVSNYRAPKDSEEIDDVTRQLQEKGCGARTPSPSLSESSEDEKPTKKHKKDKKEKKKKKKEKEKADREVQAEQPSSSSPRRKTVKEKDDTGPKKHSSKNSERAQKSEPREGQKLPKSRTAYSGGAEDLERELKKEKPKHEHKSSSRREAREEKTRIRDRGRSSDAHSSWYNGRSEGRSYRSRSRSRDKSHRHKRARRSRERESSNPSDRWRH
UniProt Q6NUM9: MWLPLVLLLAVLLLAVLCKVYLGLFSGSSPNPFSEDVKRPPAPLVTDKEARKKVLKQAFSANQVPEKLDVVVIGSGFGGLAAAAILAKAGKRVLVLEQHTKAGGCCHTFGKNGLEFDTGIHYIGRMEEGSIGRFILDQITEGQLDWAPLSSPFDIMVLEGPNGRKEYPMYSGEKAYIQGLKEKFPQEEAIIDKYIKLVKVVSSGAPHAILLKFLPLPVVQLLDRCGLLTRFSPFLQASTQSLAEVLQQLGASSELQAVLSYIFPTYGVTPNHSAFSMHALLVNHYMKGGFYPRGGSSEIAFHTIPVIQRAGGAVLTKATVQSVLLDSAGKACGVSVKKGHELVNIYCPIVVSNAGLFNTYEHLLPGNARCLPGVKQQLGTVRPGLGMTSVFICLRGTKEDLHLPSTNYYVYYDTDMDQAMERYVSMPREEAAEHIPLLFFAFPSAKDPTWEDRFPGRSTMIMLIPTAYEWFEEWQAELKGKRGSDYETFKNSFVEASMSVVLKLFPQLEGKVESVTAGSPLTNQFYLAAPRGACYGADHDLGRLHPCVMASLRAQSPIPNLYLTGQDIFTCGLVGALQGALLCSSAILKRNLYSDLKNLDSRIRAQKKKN
UniProt O14593: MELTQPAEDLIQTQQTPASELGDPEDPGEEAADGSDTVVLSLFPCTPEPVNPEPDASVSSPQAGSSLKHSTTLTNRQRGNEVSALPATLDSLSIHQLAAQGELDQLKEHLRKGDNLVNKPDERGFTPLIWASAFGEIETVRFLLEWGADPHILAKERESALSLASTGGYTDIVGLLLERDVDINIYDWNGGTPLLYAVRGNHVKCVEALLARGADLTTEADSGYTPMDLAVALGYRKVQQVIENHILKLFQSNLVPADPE
UniProt Q8TEB9: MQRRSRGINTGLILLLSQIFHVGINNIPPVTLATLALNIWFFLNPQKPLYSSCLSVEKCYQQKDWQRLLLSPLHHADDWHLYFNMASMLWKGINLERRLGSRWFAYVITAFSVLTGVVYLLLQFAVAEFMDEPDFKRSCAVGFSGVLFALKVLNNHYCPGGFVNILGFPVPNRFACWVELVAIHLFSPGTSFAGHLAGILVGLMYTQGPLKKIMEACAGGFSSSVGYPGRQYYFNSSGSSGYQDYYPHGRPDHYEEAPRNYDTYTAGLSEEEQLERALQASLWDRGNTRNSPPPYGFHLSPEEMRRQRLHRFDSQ
UniProt Q6NUK4: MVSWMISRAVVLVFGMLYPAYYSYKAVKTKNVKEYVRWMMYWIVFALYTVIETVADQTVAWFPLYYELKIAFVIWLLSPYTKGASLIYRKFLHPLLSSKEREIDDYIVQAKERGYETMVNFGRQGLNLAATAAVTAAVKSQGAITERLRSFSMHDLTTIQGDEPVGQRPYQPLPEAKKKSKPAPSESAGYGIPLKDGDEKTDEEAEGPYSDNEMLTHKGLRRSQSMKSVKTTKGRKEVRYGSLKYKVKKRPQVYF

What was measured:
Experiment in all cases: log2 fold change, soluble protein after heating vs DMSO (PISA); higher = thermal stabilisation; K562 lysate, 10 uM; active = over 0.2 and 3.5 SD of the protein, either way, in both replicates (recomputed)
vemurafenib = compound: CCCS(=O)(=O)Nc1ccc(F)c(C(=O)c2c[nH]c3ncc(-c4ccc(Cl)cc4)cc23)c1F [vemurafenib]
How it was run: (§1)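 K562 pellets were dounce-homogenised in PBS pH 7.4 with 1 mM MgCl2, and the crude extract at 1 mg/mL protein was treated with 10 μM compound for 30 min. Aliquots were heated for 3 min across 48°C-58°C, pooled, and brought to 0.5% NP-40 at 4°C; soluble protein was the supernatant after 21,000xg for 90 min. Soluble protein was quantified by TMTpro 16plex LC-MS/MS with channel sums equalised, and reported as log2 fold change in thermal stability against DMSO controls, with values from duplicates.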

[1] = compound: CCCS(=O)(=O)Nc1ccc(F)c(C(=O)c2c[nH]c3ncc(Cl)cc23)c1F
How it was run: as §1

barasertib = compound: CCN(CCCOc1ccc2c(Nc3cc(CC(=O)Nc4cccc(F)c4)[nH]n3)ncnc2c1)CCOP(=O)(O)O [barasertib]
How it was run: as §1

[2] = compound: CC[C@@H]1C(=O)N(C)c2cnc(Nc3ccc(C(=O)NC4CCN(C)CC4)cc3OC)nc2N1C1CCCC1
How it was run: as §1

volasertib = compound: CC[C@@H]1C(=O)N(C)c2cnc(Nc3ccc(C(=O)N[C@H]4CC[C@H](N5CCN(CC6CC6)CC5)CC4)cc3OC)nc2N1C(C)C [volasertib]
How it was run: as §1

[3] = compound: CCn1c(C(=O)N(C2CC2)C2CC2)cc2c3c(ncn3C)c(Nc3cc(C)n(C)n3)nc21
How it was run: as §1

[4] = compound: CCn1cc(-c2ccnc3[nH]c(-c4cccc(CN(C)C)c4)cc23)c(-c2ccc(NC(=O)N(C)C)cc2)n1
How it was run: as §1

[5] = compound: CN1CCC(CNc2ccc3ncc(-c4cccc(OC(F)(F)F)c4)n3n2)CC1
How it was run: as §1

saracatinib = compound: CN1CCN(CCOc2cc(OC3CCOCC3)c3c(Nc4c(Cl)ccc5c4OCO5)ncnc3c2)CC1 [saracatinib]
How it was run: as §1

sotrastaurin = compound: CN1CCN(c2nc(C3=C(c4c[nH]c5ccccc45)C(=O)NC3=O)c3ccccc3n2)CC1 [sotrastaurin]
How it was run: as §1

Measured: log2 fold change

REXO2 (UniProt Q9Y3B8)
inactive: vemurafenib 0.003 | [1] -0.039 | barasertib -0.029 | [2] -0.006 | volasertib 0.017 | [3] -0.012 | [4] 0.077 | [5] -0.02 | saracatinib -0.001 | sotrastaurin -0.011

RB1CC1 (UniProt Q8TDY2)
inactive: vemurafenib 0.028 | [1] 0.016 | barasertib 0.018 | [2] 0.063 | volasertib -0.021 | [3] -0.007 | [4] 0.031 | [5] 0 | saracatinib 0.011 | sotrastaurin -0.007

RARS (UniProt P54136)
inactive: vemurafenib -0.004 | [1] -0.003 | barasertib 0.046 | [2] -0.093 | volasertib -0.078 | [3] 0.067 | [4] 0.013 | [5] -0.039 | saracatinib 0.027 | sotrastaurin 0.045

RBMX2 (UniProt Q9Y388)
inactive: vemurafenib -0.008 | [1] 0.102 | volasertib -0.085 | saracatinib 0.071

RETSAT (UniProt Q6NUM9)
inactive: vemurafenib 0.115 | [1] 0.039 | barasertib 0.076 | [2] 0 | volasertib -0.087 | [3] -0.297 | [4] -0.318 | [5] 0.116 | saracatinib 0.108 | sotrastaurin -0.119

RFXANK (UniProt O14593)
inactive: vemurafenib -0.041 | [1] -0.005 | barasertib 0.133 | [2] -0.041 | volasertib 0.029 | [3] -0.006 | [4] 0.049 | [5] -0.126 | saracatinib 0.046 | sotrastaurin -0.002

Quoted from the results shown (two entries):
RARS (UniProt P54136)
inactive: vemurafenib -0.004 | [1] -0.003 | barasertib 0.046 | [2] -0.093 | volasertib -0.078 | [3] 0.067 | [4] 0.013 | [5] -0.039 | saracatinib 0.027 | sotrastaurin 0.045

RBMX2 (UniProt Q9Y388)
inactive: vemurafenib -0.008 | [1] 0.102 | volasertib -0.085 | saracatinib 0.071

Further entries follow:

RAVER1 (UniProt E9PAU2)
inactive: vemurafenib 0.042 | [1] 0.043 | barasertib -0.051 | [2] 0.072 | volasertib -0.033 | [3] 0.055 | [4] 0.044 | [5] -0.067 | saracatinib 0.007 | sotrastaurin -0.022

RHBDD1 (UniProt Q8TEB9)
inactive: vemurafenib 0.105 | [1] -0.08 | barasertib -0.05 | [2] -0.16 | volasertib -0.074 | [4] 0.016 | [5] -0.029

REEP3 (UniProt Q6NUK4)
inactive: vemurafenib 0.048 | [1] -0.04 | barasertib 0.035 | volasertib -0.053 | [3] -0.035 | [4] -0.006 | [5] -0.051 | sotrastaurin 0.031
